{"source": "PubChem BioAssay AID492960", "about": "(National Center for Advancing Translational Sciences (NCATS), 2010)", "note": "Inconclusive means that the source gave no clear call. Such entries were picked first, then a sample of the others. Potencies beside an inconclusive call are fits to weak or partial responses and may not hold up. Calls of active or inactive are those of the source. Calls follow the shape of the dose curve; as a rule, active = well fitted curve in the direction sought with a large enough effect; inconclusive = small, poorly fitted or top-dose-only effect, or effect the other way, or another doubt; inactive = no such curve, though single readings can be large or run the other way.", "data": [{"assay": "Secondary Assay for lipid storage modulators: HepG2 cell LDSA assay for probe SAR", "details": "HepG2 lipid droplet BODIPY, laser-scanning cytometry, 18-24 h; series mostly up to 46.1 µM", "procedure,_shortened": "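Dose-response lipid-storage test: HepG2 cells were fed 400 uM oleic acid with compound for 18-24 h at 24 degrees C. BODIPY 493/503 intensity gave droplet accumulation, and an object ratio was taken against CellTracker Red cell counts. Percent activity was set against 20 uM Triacsin C as full inhibition.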", "values": [{"smiles": "O=C(NC1CCCc2c1cnn2-c1ccc(F)cc1F)C1CCCCN1", "note": "(stereo not given)", "Potency": "inactive"}, {"smiles": "O=C(NC1CCCc2c1cnn2-c1ccc(F)cc1F)c1ccccc1", "note": "(stereo not given)", "Potency": "inconclusive: 7.91 µM [falling, partial curve, poor fit]"}, {"smiles": "CCOc1ccc(CCNC(=O)c2cc3sccc3n2C)cc1", "Potency": "inconclusive: 19.9 µM [falling, partial curve, poor fit]"}, {"smiles": "CCOC(=O)C1CCN(C(=O)C2(NC(=O)Nc3ccc(F)cc3F)CCCCC2)CC1", "Potency": "inconclusive: 17.7 µM [falling, partial curve, poor fit]"}, {"smiles": "O=C(NC1CCCc2c1cnn2-c1ccccc1F)c1cccc2nccnc12", "note": "(stereo not given)", "Potency": "inactive"}]}]}
